In publication doi:10.1101/530642:
No constants are given. Whether binding was seen depends on the method and setting. In cells and extracts the contact can be indirect. Some results given as binding are weak or reduced against the parent protein; the word gives no strength.

The chains behind the UniProt entries cited, without tags or fusion partners. Where a name states a change or a piece, a line headed by the entry shows the natural chain unless it says otherwise. Residues count along the entry.
UniProt Q27J81, whole entry: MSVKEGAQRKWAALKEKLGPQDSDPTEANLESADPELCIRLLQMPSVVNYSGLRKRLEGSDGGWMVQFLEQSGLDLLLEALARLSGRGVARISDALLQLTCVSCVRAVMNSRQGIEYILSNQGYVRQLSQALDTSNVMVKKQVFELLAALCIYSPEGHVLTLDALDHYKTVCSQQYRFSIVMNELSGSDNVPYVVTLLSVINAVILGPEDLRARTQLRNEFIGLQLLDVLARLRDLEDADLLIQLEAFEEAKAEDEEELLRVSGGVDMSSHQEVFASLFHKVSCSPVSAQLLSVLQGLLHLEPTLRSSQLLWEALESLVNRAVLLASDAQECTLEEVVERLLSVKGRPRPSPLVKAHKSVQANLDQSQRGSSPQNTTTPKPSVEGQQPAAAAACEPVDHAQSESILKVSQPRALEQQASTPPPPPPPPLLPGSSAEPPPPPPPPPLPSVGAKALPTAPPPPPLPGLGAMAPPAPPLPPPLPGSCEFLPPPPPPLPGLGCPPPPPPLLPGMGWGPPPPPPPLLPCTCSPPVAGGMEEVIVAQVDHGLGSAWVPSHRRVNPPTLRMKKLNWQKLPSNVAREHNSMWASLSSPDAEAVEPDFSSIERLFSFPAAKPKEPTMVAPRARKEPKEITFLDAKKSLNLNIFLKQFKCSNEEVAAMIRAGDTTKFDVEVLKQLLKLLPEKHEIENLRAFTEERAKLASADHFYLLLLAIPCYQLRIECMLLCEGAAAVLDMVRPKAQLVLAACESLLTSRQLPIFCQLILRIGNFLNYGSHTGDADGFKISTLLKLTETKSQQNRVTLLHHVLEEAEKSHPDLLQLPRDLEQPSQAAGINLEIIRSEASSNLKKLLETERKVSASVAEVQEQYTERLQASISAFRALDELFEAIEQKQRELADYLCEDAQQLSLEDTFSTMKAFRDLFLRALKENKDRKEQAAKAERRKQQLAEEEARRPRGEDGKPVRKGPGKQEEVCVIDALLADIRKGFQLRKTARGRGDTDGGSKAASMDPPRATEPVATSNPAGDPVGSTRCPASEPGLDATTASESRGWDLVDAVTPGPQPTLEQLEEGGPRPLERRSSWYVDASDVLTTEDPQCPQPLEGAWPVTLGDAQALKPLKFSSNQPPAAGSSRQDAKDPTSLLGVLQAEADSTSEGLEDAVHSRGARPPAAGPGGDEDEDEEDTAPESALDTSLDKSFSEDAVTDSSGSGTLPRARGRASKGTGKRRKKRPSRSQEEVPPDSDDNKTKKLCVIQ
UniProt Q27J81, 1-547: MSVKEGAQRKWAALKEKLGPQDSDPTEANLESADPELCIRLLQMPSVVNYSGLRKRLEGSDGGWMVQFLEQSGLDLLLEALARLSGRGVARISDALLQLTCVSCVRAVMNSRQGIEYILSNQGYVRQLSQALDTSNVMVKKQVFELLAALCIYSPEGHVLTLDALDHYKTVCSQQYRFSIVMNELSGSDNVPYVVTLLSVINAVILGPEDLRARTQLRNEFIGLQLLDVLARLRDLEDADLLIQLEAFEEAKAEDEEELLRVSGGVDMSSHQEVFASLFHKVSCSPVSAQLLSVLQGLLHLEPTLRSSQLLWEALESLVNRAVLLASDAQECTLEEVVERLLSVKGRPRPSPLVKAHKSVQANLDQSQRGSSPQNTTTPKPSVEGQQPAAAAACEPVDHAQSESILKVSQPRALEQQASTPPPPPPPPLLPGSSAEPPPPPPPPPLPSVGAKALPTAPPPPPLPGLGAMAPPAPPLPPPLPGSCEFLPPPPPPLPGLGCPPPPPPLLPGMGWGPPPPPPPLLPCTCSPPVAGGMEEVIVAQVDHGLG
UniProt O60610, whole entry: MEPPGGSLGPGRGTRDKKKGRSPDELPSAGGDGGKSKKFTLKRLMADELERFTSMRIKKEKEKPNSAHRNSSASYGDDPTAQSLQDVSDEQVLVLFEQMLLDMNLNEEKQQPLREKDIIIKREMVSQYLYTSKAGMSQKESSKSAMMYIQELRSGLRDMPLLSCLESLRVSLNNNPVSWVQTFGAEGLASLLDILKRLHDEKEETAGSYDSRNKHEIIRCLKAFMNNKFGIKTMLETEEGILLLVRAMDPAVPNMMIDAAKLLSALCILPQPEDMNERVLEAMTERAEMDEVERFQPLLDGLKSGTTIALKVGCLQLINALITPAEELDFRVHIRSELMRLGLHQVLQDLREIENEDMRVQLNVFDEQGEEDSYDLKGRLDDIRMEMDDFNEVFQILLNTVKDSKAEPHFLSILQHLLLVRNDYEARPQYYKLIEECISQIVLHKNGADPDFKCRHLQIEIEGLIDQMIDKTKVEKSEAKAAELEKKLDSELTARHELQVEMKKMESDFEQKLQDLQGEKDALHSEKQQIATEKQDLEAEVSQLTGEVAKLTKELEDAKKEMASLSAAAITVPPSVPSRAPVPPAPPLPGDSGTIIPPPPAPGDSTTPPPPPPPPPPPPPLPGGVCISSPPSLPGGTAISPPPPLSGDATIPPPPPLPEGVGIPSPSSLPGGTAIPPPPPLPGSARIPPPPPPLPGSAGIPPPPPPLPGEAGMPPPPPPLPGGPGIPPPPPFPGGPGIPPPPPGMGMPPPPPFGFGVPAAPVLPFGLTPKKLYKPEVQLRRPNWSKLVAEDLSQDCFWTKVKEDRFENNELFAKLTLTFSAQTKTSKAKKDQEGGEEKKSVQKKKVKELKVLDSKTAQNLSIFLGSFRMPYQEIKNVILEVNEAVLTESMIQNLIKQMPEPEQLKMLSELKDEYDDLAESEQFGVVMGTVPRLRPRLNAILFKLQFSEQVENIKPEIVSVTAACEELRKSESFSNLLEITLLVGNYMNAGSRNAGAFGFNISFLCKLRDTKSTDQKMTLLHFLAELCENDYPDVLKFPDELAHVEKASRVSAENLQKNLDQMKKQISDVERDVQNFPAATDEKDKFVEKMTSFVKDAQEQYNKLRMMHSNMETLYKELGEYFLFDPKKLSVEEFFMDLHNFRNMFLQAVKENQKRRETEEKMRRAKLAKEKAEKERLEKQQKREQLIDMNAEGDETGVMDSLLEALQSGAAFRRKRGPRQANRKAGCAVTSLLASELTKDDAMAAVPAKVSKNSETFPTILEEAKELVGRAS

Legend:
Experiment in all cases: co-IP
[1] = target: GFP-tagged INF2 N-fragment (wild-type), amino acids 1-547 of the human INF2-CAAX isoform (human) (UniProt Q27J81)
[2] = target: GFP-tagged INF2 N-fragment R218Q, amino acids 1-547 of the human INF2-CAAX isoform (human) (UniProt Q27J81)
[3] = target: GFP-tagged full-length INF2-CAAX (wild-type), amino acids 1-1249 (human) (UniProt Q27J81)
[4] = target: GFP-tagged full-length INF2-CAAX R218Q, amino acids 1-1249 (human) (UniProt Q27J81)
[5] = target: non-cleavable GFP-tagged full-length INF2-CAAX (Δ543-548) (human) (UniProt Q27J81)
[6] = target: non-cleavable GFP-tagged full-length INF2-CAAX R218Q (Δ543-548) (human) (UniProt Q27J81)

binding [1]: binds
binding [2]: binds
binding [3]: binds
binding [4]: binds
binding [5]: no binding
binding [6]: no binding
Substance: mDIA1 (DIAPH1) (from UniProt O60610 1-1272)
